Test results: patent US20040181343A1, “Computer program products and systems for rapidly changing the solution environment around sensors” (Cellectricon AB, priority 2002, published 2004)
At least one compound was matched to its structure with a doubt left.

Columns and labels:
PC-12 cells = assay: Re-sensitization of patch-clamped cell, whole-cell patch clamp with microfluidic buffer superfusion and cell scanning; type: cell-based; conditions: 1 mM acetylcholine
PC-12 cell = assay: Rapid scanning of a patch-clamped cell across interdigitated streams of acetylcholine and buffer, whole-cell current response; type: cell-based; conditions: 1 mM acetylcholine

## CC(=O)OCC[N+](C)(C)C [acetylcholine]
PC-12 cells; exposure for longer periods of time (>5 s), holding potential -70 mV
  De-sensitization of the current response (decrease of the mean whole-cell current): De-sensitization of the current response could be observed
PC-12 cells; shorter exposure times (<5 s) or repeated short exposures with re-sensitization in agonist free buffer
  De-sensitization of the cells: No de-sensitization
PC-12 cell; fast scan rate 4 mm/s (FIG. 18D), flow rate 6.8 mm/s
  Desensitisation: no desensitisation can be detected
PC-12 cell; slow scan rate 0.61 mm/s (FIG. 18A), flow rate 6.8 mm/s
  Maximal whole cell current response per peak from one acetylcholine stream to the next: the maximal response for each peak decreases
PC-12 cell; slow scan rate (seconds), 6.25 μm/s, flow rate 2.7 mm/s (FIG. 20)
  Desensitisation: desensitisation is pronounced
